Measured values from patent US20120251511A1, “COMPOSITION AND PRODUCTS FOR ENABLING THE PRODUCTION OF EQUOL IN VIVO” (priority 2011, published 2012).
At least one structure is not confirmed: it was looked up by name or label, or the drawing left a doubt.

Tested on: androgenic alopecia (hair loss)
Assay: Observed effects on androgenic alopecia (hair loss)
Assay type: in vivo, human
Conditions: topically for one year, before the experiment
Description: The goal of the first experiment, performed in June 2006, was to investigate the ability for the BLDG formula to show both objective and subjective results. Objective results included blood and urine samples testing for the presence of equol. Subjective results included the documentation of observed effects on androgenic alopecia (hair loss) and acne vulgaris.
The test subject was a person, in good overall health. Subject was physically active, had adequate nutrition and was not taking any drugs or supplements that were known to cause hair loss or acne.
The subject was experiencing a high degree of shedding of the hair from areas of the scalp consistent with male pattern baldness. Miniaturization of the hair follicles on the scalp was noticeable along the hair line, part line and vertex upon close observation. […] Generally, the subject would have been considered a Class II on the Norwood-Hamilton scale, but with some increased vertex thinning more attributable to a Class III.

`Nc1cc(N2CCCCC2)nc(N)[n+]1[O-]` [minoxidil 5%, minoxidil, reference compound] was tested. Which hair thinning did it give?
Its hair thinning is “reversed some of the hair thinning”.
